Test results reported in US20240217917A1, “PHOTOLYTICALLY DEGRADABLE COMPOUNDS AND METHODS” (The University of Stavanger, priority 2021, published 2024).
Some results were stated once for a whole list of compounds, not compound by compound.

Assays:
Assay type in all cases: cell-based
S. Agalactiae = test: Minimum inhibitory concentration (MIC) screen, OD 600 nm
Procedure: With compounds 6-9 and the crude degradation mixtures in hand, the minimum inhibitory concentration (MIC) was screened against a number of gram-positive and gram-negative bacteria, including E. faecalis, E. coli, P. aeruginosa, S. aureus, S. agalactiae, and S. epidermidis. To determine the activity, optical density (OD) at 600 nm was measured to estimate the concentration of bacteria at concentrations from 1.6 -100 μM. Values below 0.05 are counted as active and indicates inhibition of growth, illustrated by plotting OD against the concentration for compounds 6-9, (FIG. 9). […] Black stapled lines at 0.05 for MIC and 30% for biofilm formation indicate activity threshold values. […] No activity was observed against the gram-negative bacteria (Table 3).

P. aeruginosa = test: Antimicrobial activity test
E. faecalis = test: Antimicrobial activity test

Measured: antimicrobial activity

O=[N+]([O-])c1ccc(NCC(O)Cc2ccccc2)cc1 (stereo not drawn) [Compound 1]
no antimicrobial activity: S. Agalactiae | P. aeruginosa | E. faecalis

O=[N+]([O-])c1cccc(NCC(O)Cc2ccccc2)c1 (stereo not drawn) [Compound 2]
no antimicrobial activity: S. Agalactiae | P. aeruginosa | E. faecalis

O=[N+]([O-])c1ccc(CC(O)CNc2ccccc2)cc1 (stereo not drawn) [Compound 3]
no antimicrobial activity: S. Agalactiae | P. aeruginosa | E. faecalis

O=[N+]([O-])c1cccc(CC(O)CNc2ccccc2)c1 (stereo not drawn) [Compound 4]
no antimicrobial activity: S. Agalactiae | P. aeruginosa | E. faecalis

O=C(NCC(O)CNc1ccc([N+](=O)[O-])cc1)C(Cl)Cl (stereo not drawn) [Compound 5]
no antimicrobial activity: S. Agalactiae | P. aeruginosa | E. faecalis
